Experimental findings from patent US6506881B1, “Anti-HMFG antibodies and processes for their production” (Celltech R&D Limited, priority 1991, dated 2003) are described below.

By UniProt entry, the sequences of proteins in these tests, tags left out. Residues count along the entry.
UniProt P15941, residues 24-1255: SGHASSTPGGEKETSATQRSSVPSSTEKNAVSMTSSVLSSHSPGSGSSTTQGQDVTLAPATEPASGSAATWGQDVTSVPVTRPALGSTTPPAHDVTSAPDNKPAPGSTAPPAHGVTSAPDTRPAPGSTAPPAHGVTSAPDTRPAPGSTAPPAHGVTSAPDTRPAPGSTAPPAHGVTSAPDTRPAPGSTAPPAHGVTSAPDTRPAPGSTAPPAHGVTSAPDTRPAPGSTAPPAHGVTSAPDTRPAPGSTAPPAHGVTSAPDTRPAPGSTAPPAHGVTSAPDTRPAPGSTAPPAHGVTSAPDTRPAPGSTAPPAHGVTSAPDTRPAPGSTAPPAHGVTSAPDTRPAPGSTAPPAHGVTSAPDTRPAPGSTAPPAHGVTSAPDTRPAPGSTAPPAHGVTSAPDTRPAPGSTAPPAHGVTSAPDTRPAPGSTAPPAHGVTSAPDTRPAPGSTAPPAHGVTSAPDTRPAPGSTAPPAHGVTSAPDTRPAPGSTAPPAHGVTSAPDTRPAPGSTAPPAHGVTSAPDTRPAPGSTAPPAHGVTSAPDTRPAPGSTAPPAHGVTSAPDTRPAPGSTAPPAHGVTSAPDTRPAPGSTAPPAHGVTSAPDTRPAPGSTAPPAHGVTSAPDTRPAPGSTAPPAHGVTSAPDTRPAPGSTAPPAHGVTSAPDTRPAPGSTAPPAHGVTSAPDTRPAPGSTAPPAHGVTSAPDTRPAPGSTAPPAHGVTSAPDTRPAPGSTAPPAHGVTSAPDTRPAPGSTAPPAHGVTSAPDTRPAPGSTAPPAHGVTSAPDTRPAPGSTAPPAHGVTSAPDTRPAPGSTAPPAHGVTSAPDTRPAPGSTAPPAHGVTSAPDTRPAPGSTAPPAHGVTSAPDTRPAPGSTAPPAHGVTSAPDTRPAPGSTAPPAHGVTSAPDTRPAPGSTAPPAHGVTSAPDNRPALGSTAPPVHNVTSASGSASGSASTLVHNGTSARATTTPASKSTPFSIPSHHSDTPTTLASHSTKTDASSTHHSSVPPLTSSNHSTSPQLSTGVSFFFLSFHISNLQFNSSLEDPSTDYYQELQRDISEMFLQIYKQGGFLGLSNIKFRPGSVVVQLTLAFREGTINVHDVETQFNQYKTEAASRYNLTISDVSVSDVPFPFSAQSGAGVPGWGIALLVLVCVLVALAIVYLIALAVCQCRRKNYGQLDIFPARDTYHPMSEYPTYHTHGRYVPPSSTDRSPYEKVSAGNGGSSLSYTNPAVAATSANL

For the assay, the target named is antigen recognised by CTMO1 (believed to be the PEM of HMFG) on MCF-7 or MX-1 breast carcinoma cells (human) (UniProt P15941). In words: 125I-labelled antibody on MX-1 or MCF-7 cells, 2 ug/million cells.

Results are given in words; binding and its absence hold for the method and conditions named. Some entries that bind do so weakly or less than the wild type.

B1: gL1gH2IgG2 CTMO1 (antibody, V domains shown)
VH: QIQLVQSGAEVKKPGSSVKVSCKASGYTFTDYYINWMRQAPGQGLEWIGWIDPGSGNTKYNEKFKGRATLTVDTSTNTAYMELSSLRSEDTAFYFCAREKTTYYYAMDYWGQGTLVTVSS
VL: DIQMTQSPSTLSASVGDRVTITCRSSKSLLHSNGDTFLYWFQQKPGKAPKLLMYRMSNLASGVPSRFSGSGSGTEFTLTISSLQPDDFATYYCMQHLEYPFTFGQGTKVEVKR
As for B1, the binding result is reported as “binds”.

B2: gL1gH2IgG4P CTMO1 (antibody, V domains shown)
VH: QIQLVQSGAEVKKPGSSVKVSCKASGYTFTDYYINWMRQAPGQGLEWIGWIDPGSGNTKYNEKFKGRATLTVDTSTNTAYMELSSLRSEDTAFYFCAREKTTYYYAMDYWGQGTLVTVSS
VL: DIQMTQSPSTLSASVGDRVTITCRSSKSLLHSNGDTFLYWFQQKPGKAPKLLMYRMSNLASGVPSRFSGSGSGTEFTLTISSLQPDDFATYYCMQHLEYPFTFGQGTKVEVKR
With B2, the binding result is “binds”.
